According to PubChem BioAssay AID624297 (National Center for Advancing Translational Sciences (NCATS), 2012):
Hit rate of the full screen: of about 340,000 compounds, about 6,200 (1.8%) were called active. The shares of active, inactive and inconclusive entries below differ from those in the screen. The call rests on the fitted dose curve; in most records, active means well fitted activation curve with a large enough effect; inconclusive means small, poorly fitted or top-dose-only effect; inactive means no such curve, though single readings can be large or run the other way. A potency beside an inconclusive call is a rough fit, not a confirmed value.

Test: A quantitative high throughput screen for small molecules that induce DNA re-replication in SW480 colon adenocarcinoma cells. Further: nearly all actives have a fitted effect of over 55% in size. On re-replication activation: % of control where 0% means no effect.
Conditions: Hoechst DNA content imaging, 48 h; re-replication activation: at 46.1 µM (top of the series) unless noted
How it was run: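 Cells (250 per well) received 23 nL compound or DMSO by pin tool and were kept 48 hr at 37 C, 5% CO2. Nuclei were then stained with Hoechst for 40 min and scanned for DNA content.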
Potency means the concentration at half of the fitted maximal effect.

SMILES | Potency | re-replication activation
C[C@H](CO)N1C[C@H](C)[C@@H](CN(C)S(=O)(=O)c2ccc(F)cc2)Oc2c(NC(=O)CCC(F)(F)F)cccc2C1=O | inactive | 
CCOc1ccc(-c2nnc(SCC(=O)O)n2Cc2ccccc2)cc1 | inconclusive: 0.184 µM [activator, single point] | 
Cc1cc(N)c2cc(NC(=O)/C=C/c3ccccc3Cl)ccc2n1 | inconclusive: 29.1 µM [activator, single point] | 
O=C(NCC1CCCO1)c1ccc([N+](=O)[O-])o1 (centres undefined) | inconclusive: 29.1 µM [activator, single point] | 
Cc1ccc(O)c2ncccc12 | inconclusive: 2.99 µM [activator, full curve, poor fit] | 
O=C(COc1ccc(Cl)cc1)NCC(=O)N1CCC2(CC1)NCCc1[nH]cnc12 | inactive | 
CCOC(=O)CN(C(=O)COc1nc(-c2ccccc2)cc(C)c1C#N)c1ccccc1C | inconclusive: 29.1 µM [activator, single point] | 
Cc1occc1-c1nnc(SCC(=O)c2ccc(F)cc2)n1Cc1ccco1 | inactive | 
CCOC(=O)N1CCN(S(=O)(=O)c2c(C)nc3sccn3c2=O)CC1 | inconclusive: 16.4 µM [activator, single point] | 
O=C(N/N=C/c1ccccn1)c1cccc([N+](=O)[O-])c1 | inconclusive: 29.1 µM [activator, single point] | 
COc1cc(OC)cc(C(=O)OCC(=O)NC2CCCCCC2)c1 |  | inconclusive: -36.3% [activator]
CCCn1c(C2CCCN2c2nc(-c3cccc(Br)c3)cs2)nc2cc(Cl)c(Cl)cc21 (centres undefined) | inconclusive: 3.66 µM [activator, single point] | 
COC(=O)C(C)Nc1cccc(Br)c1 (centres undefined) | inconclusive: 2.31 µM [activator, full curve] | 
CCOC(=O)c1ccc(N2CCOCC2)c(NC(=O)c2nccnc2C(=O)O)c1 | inconclusive: 1.64 µM [activator, full curve, poor fit] | 
CC1(C)CC(NC(=O)C2CCN(S(=O)(=O)c3ccc(F)cc3)CC2)CC(C)(C)N1 | inactive | 
COc1ccc(N2CCN(C(=O)c3ccc(NS(=O)(=O)c4ccccc4)cc3)CC2)cc1 | inconclusive: 29.1 µM [activator, partial curve, poor fit] | 
Cc1cc(Cl)ccc1OCC(=O)N1CCCN(C(=O)COc2ccc(Cl)cc2C)CC1 | inactive | 
Cc1ccc2c(c1)C=CC(C#N)N2C(=O)c1ccccc1 (centres undefined) | active: 2.06 µM | 
CCC(C)C(=O)Nc1ccc([N+](=O)[O-])cc1OC (centres undefined) | inactive | 
Nc1nnc(C(=O)c2ccccc2N)s1 | inconclusive: 23.1 µM [activator, single point] | 
CCOC(=O)c1ccc[n+](CC(=O)c2ccc(NC(=O)c3ccccc3)cc2)c1 | inconclusive: 0.731 µM [activator, full curve, poor fit] | 
CN(C)S(=O)(=O)c1ccc(C(=O)Nc2cc(S(=O)(=O)Nc3ccccc3Cl)ccc2N2CCCCC2)cc1 | inconclusive: 29.1 µM [activator, partial curve, poor fit] | 

Ordered by SMILES length (falling): 8 of the compounds above.
SMILES | Potency | re-replication activation
CCCn1c(C2CCCN2c2nc(-c3cccc(Br)c3)cs2)nc2cc(Cl)c(Cl)cc21 (centres undefined) | inconclusive: 3.66 µM [activator, single point] | 
CCOC(=O)CN(C(=O)COc1nc(-c2ccccc2)cc(C)c1C#N)c1ccccc1C | inconclusive: 29.1 µM [activator, single point] | 
O=C(COc1ccc(Cl)cc1)NCC(=O)N1CCC2(CC1)NCCc1[nH]cnc12 | inactive | 
CCOC(=O)N1CCN(S(=O)(=O)c2c(C)nc3sccn3c2=O)CC1 | inconclusive: 16.4 µM [activator, single point] | 
O=C(N/N=C/c1ccccn1)c1cccc([N+](=O)[O-])c1 | inconclusive: 29.1 µM [activator, single point] | 
CCOc1ccc(-c2nnc(SCC(=O)O)n2Cc2ccccc2)cc1 | inconclusive: 0.184 µM [activator, single point] | 
CCC(C)C(=O)Nc1ccc([N+](=O)[O-])cc1OC (centres undefined) | inactive | 
Cc1ccc(O)c2ncccc12 | inconclusive: 2.99 µM [activator, full curve, poor fit] | 

Next entries

SMILES | Potency | re-replication activation
CCCc1[nH]n(-c2ccc(F)cc2)c(=O)c1C=Nc1cccc(F)c1 | inconclusive: 20.6 µM [activator, single point] | 
CCCCCCn1c(CN2CCCCC2C)nc2c1c(=O)n(C)c(=O)n2C (centres undefined) | inconclusive: 29.1 µM [activator, single point] | 
CCOc1cc(/C=C2/NC(=O)NC2=O)cc(Br)c1OCc1ccc(C(=O)O)cc1 | inconclusive: 29.1 µM [activator, single point] | 
O=C(N/N=C/c1ccccn1)c1ccc(Br)cc1 | inconclusive: 29.1 µM [activator, single point] | 
CN(C)S(=O)(=O)c1ccc(Nc2nc(C3CC3)nc3c2nnn3Cc2ccccc2Cl)cc1 | inactive | 
CCCN1C(=O)c2ccc(C(=O)Nc3ccccc3C(=O)O)cc2C1=O | inactive | 
O=C(NCc1ccccn1)c1coc(=O)c(Br)c1 | inconclusive: 20.6 µM [activator, single point] | 
O=C(CCN1C(=O)/C(=C\c2ccccc2)SC1=S)NNC(=O)c1ccccc1O | inconclusive: 23.1 µM [activator, single point] | 
CCN(CC(=O)Nc1c(F)cccc1F)C(=O)c1ccc(N2C(=O)c3ccccc3C2=O)cc1 | inactive | 
Cc1cc(S(=O)(=O)NCc2ccco2)c(C)cc1Cl | inactive | 
COc1ccccc1C(=O)NC(=O)Nc1nc(-c2ccccc2)cc(C(F)(F)F)n1 | inconclusive: 13 µM [activator, partial curve, poor fit] | 
CCN(CC(=O)Nc1ccc2c(c1)OCCO2)C(=O)CCOc1ccccc1 | inconclusive: 6.51 µM [activator, single point] | 
COc1cc(OC)cc(C(=O)Nc2ccccc2C(=O)NCc2cccnc2)c1 | inactive | 
CCOc1cc(/C=C/c2nc3cc(C)c(C)cc3s2)ccc1OCC(=O)N1CCOCC1 | inconclusive: 11.6 µM [activator, partial curve] | 
Cc1cc(NC(=S)NC(=O)C2CC2)ccc1Br | inactive | 
O=C(O)c1ccc(NC(=O)C2C3CCC(O3)C2C(=O)O)cc1 (centres undefined) | inconclusive: 18.4 µM [activator, single point] | 
NC1=NC(=Nc2ccc(S(=O)(=O)N3CCOCC3)cc2)c2ccccc21 | inconclusive: 25.9 µM [activator, single point] | 
Cc1ccc(NC(=O)C(C)OC(=O)COc2cccc(C(F)(F)F)c2)cc1 (centres undefined) | inactive | 
CCOC(=O)Cc1cc(=O)n2[nH]c(C)c(C#N)c2n1 | inconclusive: 29.1 µM [activator, single point] | 
COCc1cc(C)nc(OCC(=O)N/N=C/c2ccc(O)cc2O)c1C#N | inconclusive: 29.1 µM [activator, single point] | 
O=C1C=C(NC2CCCC2)CC(c2ccccc2)C1 (centres undefined) | inconclusive: 29.1 µM [activator, single point] | 
CCOC(=O)c1c(C)oc2cc(Br)c(OC(C)C(=O)OCC)cc12 (centres undefined) | inconclusive: 29.1 µM [activator, partial curve, poor fit] | 
